Experimental data as given in publication PMC10816710.

Chains of the proteins cited; added tags and fusions are not shown.
UniProt P55737: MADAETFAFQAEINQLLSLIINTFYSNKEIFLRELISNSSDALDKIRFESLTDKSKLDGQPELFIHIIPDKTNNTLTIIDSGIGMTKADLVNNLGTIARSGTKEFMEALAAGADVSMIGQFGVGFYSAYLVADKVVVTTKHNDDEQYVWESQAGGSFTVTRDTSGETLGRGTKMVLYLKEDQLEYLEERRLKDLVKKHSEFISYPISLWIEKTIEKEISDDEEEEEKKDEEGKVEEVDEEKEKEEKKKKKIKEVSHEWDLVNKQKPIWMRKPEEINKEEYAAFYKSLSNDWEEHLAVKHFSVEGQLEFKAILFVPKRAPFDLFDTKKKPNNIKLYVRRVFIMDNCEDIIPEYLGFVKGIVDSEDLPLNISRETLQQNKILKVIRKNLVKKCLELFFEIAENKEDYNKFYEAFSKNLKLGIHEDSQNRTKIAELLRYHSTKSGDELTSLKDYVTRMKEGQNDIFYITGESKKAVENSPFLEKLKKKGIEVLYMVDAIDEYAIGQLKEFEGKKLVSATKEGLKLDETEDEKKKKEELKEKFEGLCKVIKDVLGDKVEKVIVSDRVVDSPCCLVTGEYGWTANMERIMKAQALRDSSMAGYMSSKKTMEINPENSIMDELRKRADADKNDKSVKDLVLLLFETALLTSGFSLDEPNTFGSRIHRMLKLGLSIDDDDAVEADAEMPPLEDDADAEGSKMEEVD

Target: T1, APRF1-FLAG (FLAG-tagged ANTHESIS PROMOTING FACTOR 1) (Arabidopsis thaliana) (UniProt Q9LYK6)
T1 sequence: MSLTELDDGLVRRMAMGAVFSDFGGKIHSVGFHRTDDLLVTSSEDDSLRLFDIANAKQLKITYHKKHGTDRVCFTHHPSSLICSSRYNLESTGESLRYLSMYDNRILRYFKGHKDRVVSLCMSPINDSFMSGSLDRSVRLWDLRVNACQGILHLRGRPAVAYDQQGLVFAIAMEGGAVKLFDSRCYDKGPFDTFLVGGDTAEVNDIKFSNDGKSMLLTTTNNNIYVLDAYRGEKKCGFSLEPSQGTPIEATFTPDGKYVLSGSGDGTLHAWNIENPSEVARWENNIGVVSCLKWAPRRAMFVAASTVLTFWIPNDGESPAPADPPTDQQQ
Experiment: affinity purification with mass spectrometry; anti-FLAG antibody on protein G magnetic beads, incubated overnight at 4 °C with concentrated total lysate of APRF1-FLAG plants (lines 1 and 3) or WT Col-0 (control); lysis buffer 10% glycerol, 25 mM Tris pH 7.6, 1 mM EDTA, 150 mM NaCl, 0.1% NP40; proteins found only in lines 1 and 3 were kept

binding: binds
Substance: HSP90.2 (endogenous) (from UniProt P55737 1-699)

No constants are given. Whether binding was seen depends on the method and setting. In cells and extracts the contact can be indirect. Here binding means that the protein was enriched with, or labelled near, the bait; the list need not be complete. Where a sequence is shown, tags or fusion partners need not be part of it.
